# Primary screen of a compound library

Values are the deposited “Percent Effect”, in %. The record does not define 0% and 100%; most values in the screen are far below 50% and negative numbers occur (in some assays of this library far below -100). This is an unselected part of the compounds tested. Two or more numbers in one place are separate tests of the same structure; such repeats can differ widely.

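Whole-cell growth test on Mycobacterium tuberculosis, read after 4 days in a medium based on cholesterol and the lipid DPPC; the read-out is not stated. Tested at 50 µM. Higher reads as more growth inhibition (inferred: compounds with an IC50 in retests scored well above the rest). About 69,000 compounds were tested under these conditions; 0.54% (about 370) showed 50% or more at least once.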

Result for [H][C@]12CCCCN1CCC[C@H]2CN(C)Cc1nnc(CC)o1 was 19.13%. With c1ccc(C2CCCN2C2CCSCC2)nc1 (configuration not stated) the screen gave 5.426%. For [H][C@@]12CN(C(C)=O)CCO[C@]1([H])CN(S(=O)(=O)C1CC1)C2 the result was 5.355%. Result for CS(=O)(=O)NCC1CCCN(C(=O)c2ccc(F)c(F)c2)C1 (configuration not stated) was -26.92%. CC(C)C[C@H](NC(=O)Cn1ccc2c(Cl)cccc21)C(=O)O read -23.27%. For O=C(NCC1COCc2c(-c3cccnc3)nnn2C1)c1cccs1.O=C(O)C(F)(F)F (configuration not stated) the result was -6.92%. With O=C(O)C(F)(F)F.[H][C@@]12CN(C(=O)C3CC=CC3)C[C@]1([H])C(=O)N(Cc1ccncc1)C2 the screen gave -12.43%.

[H][C@]12CC=C(CN3CCCn4nc(C(=O)O)cc4C3)[C@]([H])(C1)C2(C)C gave -11.24%. CCc1ccc(N2CCC(NS(=O)(=O)N(CC)CC)CC2)cc1 gave -9.206%. With Cc1cnn(CCNCC(=O)NCCOc2ccc(F)cc2)c1 the screen gave -11.9%. CC(C)c1cc(NC(=O)c2cccnc2)[nH]n1 gave -15.59%. CCn1nc(C)c2ncnc(NCCCn3ccnc3)c21 gave -6.261%. COc1cccc2c3c(c(=O)[nH]c12)CCC(C)(C)O3 read 3.49%. Result for COCCN(Cc1ccccn1)C(=O)CC1OCCc2ccsc21 (configuration not stated) was -5.315%.

Result for N#Cc1ccc(F)c(CN2CCc3sccc3C2)c1 was -18.45%. Result for CN(C)C(=O)N1CCC2(CC1)C(=O)N(CC1CCOC1)c1ccccc12 (configuration not stated) was -2.655%. With O=C1CCSCC(C(=O)N2CCOCC2)N1 (configuration not stated) the screen gave -1.744%. With O=S(=O)(NCCc1nc(-c2cccnc2)n[nH]1)NCc1ccccc1 the screen gave 10.97%. With CCN(C)C(=O)c1cnc(-c2noc3cc(N4CCCCC4)ccc23)s1 the screen gave -9.188%. With CC(CNC(=O)N1CCN(c2cnccn2)CC1)Cc1cccs1 (configuration not stated) the screen gave 8.535% & 18.79%. With O=C(CN1CCc2cncnc2C1)NC(C1CC1)C1CC1 the screen gave -10.46%.

For Cc1cnc(C2(C)CCN(Cc3cscn3)CC2)s1 the result was -9.796%. CCO[C@H]1C[C@@H](O)C12CCN(S(=O)(=O)c1ccccc1OC)CC2 read 5.922%. Result for Cc1cnc(-c2nc(NC3CC3)ncc2-c2cc(C)no2)cn1 was -14.03%. Clc1cc(CN2CCCC2Cn2cncn2)c2ncccc2c1 (configuration not stated) read -14.41%. With O=C(c1ccc2c(c1)OCO2)N1CCCC(n2ccnc2)C1 (configuration not stated) the screen gave -19.21%. CCn1ncc2c1C(COC)CN(c1ncc(F)cn1)C2.O=C(O)C(F)(F)F.O=C(O)C(F)(F)F (configuration not stated) read -1.389%. Cc1ccc(C(=O)NC2CCN(CC(=O)N(C)c3ccccc3)CC2)o1 gave -13.14%.

CCN(CC)S(=O)(=O)NCC(O)c1c(Cl)cccc1Cl (configuration not stated) gave 14.98%. With Cc1cc(-n2nc(C)nc2-c2cn(CCN)nn2)ccn1 the screen gave -11.24%. With CCN1CCN(C[C@@H]2CN(c3ncc(Cl)cc3F)C[C@@H]2CO)CC1 the screen gave 17.95%. O=C(NCCc1nccs1)C(c1ccccc1)n1cnnn1 (configuration not stated) read -1.17%. O=C(O)C(F)(F)F.[H][C@@]12CNC(=O)[C@@H](C)[C@]1([H])CN(Cc1ccc3c(c1)OCO3)C2 read 4.756% & -13.76%. CC(O)C1CCN(c2cc(Cl)ccc2C#N)CC1 (configuration not stated) gave 8.578%. CC(=O)c1cccc(NC(=O)N2CCCCC2CN2CCCC2=O)c1 (configuration not stated) read 4.655%.

3 of the entries, repeated:

Compound,effect
CC(=O)c1cccc(NC(=O)N2CCCCC2CN2CCCC2=O)c1 (configuration not stated),4.655
COCCN(Cc1ccccn1)C(=O)CC1OCCc2ccsc21 (configuration not stated),-5.315
CCc1ccc(N2CCC(NS(=O)(=O)N(CC)CC)CC2)cc1,-9.206

Data taken from ChEMBL document CHEMBL3988442, “University of Dundee, Small-Polar-MMV Screening Library” (2021).